Test results from paper PMC12548473, “Solution structure of the C-terminal domain of the measles virus V protein in its free form and mechanistic analysis of STAT2 targeting” (Journal of Virology, 2025).

Sequences of proteins named here, by UniProt entry; tags and fusion partners are left off. A change or cut given only in a name is not applied to a line headed by its entry.
UniProt Q00978: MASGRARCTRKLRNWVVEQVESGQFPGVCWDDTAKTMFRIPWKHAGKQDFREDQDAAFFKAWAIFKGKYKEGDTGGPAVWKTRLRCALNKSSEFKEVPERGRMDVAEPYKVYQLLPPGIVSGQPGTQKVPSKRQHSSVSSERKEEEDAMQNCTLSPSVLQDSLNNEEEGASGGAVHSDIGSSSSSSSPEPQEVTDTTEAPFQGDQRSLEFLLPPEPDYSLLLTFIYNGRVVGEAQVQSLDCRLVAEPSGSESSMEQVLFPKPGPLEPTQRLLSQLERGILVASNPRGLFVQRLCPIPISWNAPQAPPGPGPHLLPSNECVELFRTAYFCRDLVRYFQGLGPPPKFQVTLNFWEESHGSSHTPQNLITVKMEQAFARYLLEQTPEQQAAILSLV

Target: T1, MeV-V_(CT221-299) (measles virus V protein, residues 221-299, containing the C-terminal domain) (measles virus (strain Ichinose-B95a)) (UniProt P0C774)
T1 sequence: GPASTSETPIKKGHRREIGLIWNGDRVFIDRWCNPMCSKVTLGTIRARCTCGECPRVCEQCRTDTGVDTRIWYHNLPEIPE
Assay: NMR titration; SOFAST 1H-15N HMQC of 20 µM 15N-MeV-V_(CT221-299); unlabelled partner added (STAT2-core 7.5, 10, 12.5, 20 µM; IRF9-IAD 20 µM); loss of signal intensity read out; 20°C; both purified

How did the binding turn out when “IRF9-IRF-associated domain (IRF9-IAD) (from UniProt Q00978) (domain or fragment)” was run?
Its binding is “binds weakly”.

No constants are given. Whether binding was seen depends on the method and setting. Binding can be weak; no strength is given.
